Measured data: PubChem BioAssay AID1259424 (University of Nebraska Medical Center, 2018)
This is one part, drawn at random, of about 14,000 deposited reagents. 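Higher correlation or smaller distance means closer resemblance to KSR1 loss; control wells, including KSR1 knockdowns, recur on many plates.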 The numbers tell different reagents against one gene apart. Not all columns of the deposit are shown. Not given: the time to read-out.

Aim: 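Rank knockdowns across the genome by resemblance to the KSR1 depletion profile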 (primary screen)
Cell system: human HCT116 colon cancer cells
Reagents: siRNA pool against human genes, 50 nM
Measurement: 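Log2 levels of six mRNAs (branched-DNA multiplex), adjusted by two reference genes and the non-targeting median, then scored against the average KSR1 knockdown pattern as Pearson r and euclidean distance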
Reading the numbers: mean correlation with KSR1 profile: higher = expression change more like KSR1 knockdown

mean correlation with KSR1 profile, by target gene and reagent
GSPT1 (G1 to S phase transition 1): #1 -0.283
PENK (proenkephalin): #1 -0.146
OR12D3 (olfactory receptor family 12 subfamily D member 3): #1 0.622
SERPINA5 (serpin family A member 5): #1 0.324
ZYG11B (zyg-11 family member B, cell cycle regulator): #1 -0.0291
EHD1 (EH domain containing 1): #1 -0.69
UBE2T (ubiquitin conjugating enzyme E2 T): #1 0.0451
CCL28 (C-C motif chemokine ligand 28): #1 -0.288
MAK (male germ cell associated kinase): #1 0.629
PNPO (pyridoxamine 5'-phosphate oxidase): #1 -0.795
STATH (statherin): #1 -0.468

Single entries from above:
EHD1 (EH domain containing 1), mean correlation with KSR1 profile → -0.69
For “mean correlation with KSR1 profile”, GSPT1 (G1 to S phase transition 1) shows -0.283
MAK (male germ cell associated kinase), mean correlation with KSR1 profile → 0.629

Next entries:
mean correlation with KSR1 profile, by target gene and reagent
HOXB3 (homeobox B3): #1 0.653
OCM2 (oncomodulin 2): #1 0.212
OXR1 (oxidation resistance 1): #1 -0.541
SEC24B (SEC24 homolog B, COPII component): #1 -0.105
SYCP2 (synaptonemal complex protein 2): #1 0.0409
LINC01547 (long independently transcribed non-coding RNA 1547): #1 0.965; #2 0.613
SETD5 (SET domain containing 5): #1 -0.416
PDE11A (phosphodiesterase 11A): #1 0.0262
